For 25 targets, log2 fold change results are on record in the supplement of paper PMC10849652.

By UniProt entry, the sequences of proteins in these tests, tags left out. Where a name states a change or a piece, a line headed by the entry shows the natural chain unless it says otherwise.
UniProt Q96PK6: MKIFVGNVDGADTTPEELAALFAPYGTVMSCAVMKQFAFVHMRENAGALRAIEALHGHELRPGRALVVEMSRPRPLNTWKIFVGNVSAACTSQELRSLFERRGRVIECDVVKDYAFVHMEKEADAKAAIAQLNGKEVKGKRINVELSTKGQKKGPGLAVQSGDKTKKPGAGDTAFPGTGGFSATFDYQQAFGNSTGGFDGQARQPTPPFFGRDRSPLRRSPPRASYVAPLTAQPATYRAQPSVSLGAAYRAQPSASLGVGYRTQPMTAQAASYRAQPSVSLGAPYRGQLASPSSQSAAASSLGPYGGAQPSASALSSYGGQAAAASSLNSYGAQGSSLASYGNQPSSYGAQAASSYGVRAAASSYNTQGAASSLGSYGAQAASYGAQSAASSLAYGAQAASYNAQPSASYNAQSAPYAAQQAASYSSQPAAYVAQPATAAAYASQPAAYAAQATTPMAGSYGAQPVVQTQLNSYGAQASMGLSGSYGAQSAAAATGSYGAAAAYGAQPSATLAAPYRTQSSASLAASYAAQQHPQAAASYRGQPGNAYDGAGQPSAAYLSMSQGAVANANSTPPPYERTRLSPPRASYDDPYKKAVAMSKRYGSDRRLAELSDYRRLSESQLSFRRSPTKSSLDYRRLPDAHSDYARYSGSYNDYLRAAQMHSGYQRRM
UniProt Q9H477: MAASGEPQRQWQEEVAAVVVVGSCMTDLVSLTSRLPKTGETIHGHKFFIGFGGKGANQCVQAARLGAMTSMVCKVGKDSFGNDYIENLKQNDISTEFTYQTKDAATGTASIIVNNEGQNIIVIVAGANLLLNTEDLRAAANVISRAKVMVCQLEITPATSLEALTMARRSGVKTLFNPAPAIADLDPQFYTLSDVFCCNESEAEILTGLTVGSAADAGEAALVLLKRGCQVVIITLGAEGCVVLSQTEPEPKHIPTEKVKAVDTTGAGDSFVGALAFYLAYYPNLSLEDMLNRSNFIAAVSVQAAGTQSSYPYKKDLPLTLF
UniProt Q7Z5J4: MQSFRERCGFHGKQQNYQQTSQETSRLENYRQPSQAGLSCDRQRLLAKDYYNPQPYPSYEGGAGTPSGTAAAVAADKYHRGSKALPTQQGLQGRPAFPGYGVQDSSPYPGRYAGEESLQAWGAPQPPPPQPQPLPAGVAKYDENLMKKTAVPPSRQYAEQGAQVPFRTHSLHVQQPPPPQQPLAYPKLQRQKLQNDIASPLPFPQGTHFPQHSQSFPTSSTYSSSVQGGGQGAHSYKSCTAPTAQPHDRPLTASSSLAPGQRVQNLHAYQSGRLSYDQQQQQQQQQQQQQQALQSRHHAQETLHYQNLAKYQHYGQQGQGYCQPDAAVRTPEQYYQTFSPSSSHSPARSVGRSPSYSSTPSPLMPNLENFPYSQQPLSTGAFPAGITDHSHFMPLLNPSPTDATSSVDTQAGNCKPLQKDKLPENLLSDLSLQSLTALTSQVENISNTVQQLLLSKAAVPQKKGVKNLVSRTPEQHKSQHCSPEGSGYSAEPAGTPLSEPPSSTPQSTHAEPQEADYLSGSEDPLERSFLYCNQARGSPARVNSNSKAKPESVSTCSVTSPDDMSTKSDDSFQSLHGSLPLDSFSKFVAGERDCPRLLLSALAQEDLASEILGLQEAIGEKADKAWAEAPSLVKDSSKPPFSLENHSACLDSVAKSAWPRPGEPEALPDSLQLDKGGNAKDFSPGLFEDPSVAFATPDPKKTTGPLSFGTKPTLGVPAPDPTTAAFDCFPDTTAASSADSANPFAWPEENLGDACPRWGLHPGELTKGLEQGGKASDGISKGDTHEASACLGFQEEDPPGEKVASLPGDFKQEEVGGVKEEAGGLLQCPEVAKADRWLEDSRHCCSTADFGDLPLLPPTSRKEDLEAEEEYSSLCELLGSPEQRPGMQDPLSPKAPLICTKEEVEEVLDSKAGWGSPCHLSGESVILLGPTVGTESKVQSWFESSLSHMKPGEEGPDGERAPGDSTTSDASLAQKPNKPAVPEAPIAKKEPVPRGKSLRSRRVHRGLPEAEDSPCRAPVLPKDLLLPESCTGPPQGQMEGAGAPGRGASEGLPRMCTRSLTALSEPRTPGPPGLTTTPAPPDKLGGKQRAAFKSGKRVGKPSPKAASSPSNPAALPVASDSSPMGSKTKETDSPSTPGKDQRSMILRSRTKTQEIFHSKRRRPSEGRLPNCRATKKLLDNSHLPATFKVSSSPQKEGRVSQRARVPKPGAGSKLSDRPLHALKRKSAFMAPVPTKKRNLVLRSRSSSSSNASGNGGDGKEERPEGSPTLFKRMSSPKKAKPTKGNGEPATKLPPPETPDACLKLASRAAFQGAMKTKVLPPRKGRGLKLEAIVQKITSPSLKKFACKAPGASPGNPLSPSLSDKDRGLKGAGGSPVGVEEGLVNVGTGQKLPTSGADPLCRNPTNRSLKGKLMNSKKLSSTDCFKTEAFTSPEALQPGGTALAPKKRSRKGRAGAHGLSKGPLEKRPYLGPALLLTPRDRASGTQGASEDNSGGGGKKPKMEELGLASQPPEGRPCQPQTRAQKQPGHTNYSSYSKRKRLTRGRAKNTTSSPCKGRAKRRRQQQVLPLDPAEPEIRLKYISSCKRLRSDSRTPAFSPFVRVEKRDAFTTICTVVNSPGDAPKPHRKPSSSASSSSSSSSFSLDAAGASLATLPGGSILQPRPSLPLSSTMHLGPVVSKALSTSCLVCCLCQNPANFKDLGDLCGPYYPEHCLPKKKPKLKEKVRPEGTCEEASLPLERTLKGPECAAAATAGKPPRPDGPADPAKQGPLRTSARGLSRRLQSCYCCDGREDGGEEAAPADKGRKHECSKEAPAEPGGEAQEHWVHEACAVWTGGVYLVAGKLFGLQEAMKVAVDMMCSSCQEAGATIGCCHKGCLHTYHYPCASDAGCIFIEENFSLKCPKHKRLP
UniProt Q9H5N1: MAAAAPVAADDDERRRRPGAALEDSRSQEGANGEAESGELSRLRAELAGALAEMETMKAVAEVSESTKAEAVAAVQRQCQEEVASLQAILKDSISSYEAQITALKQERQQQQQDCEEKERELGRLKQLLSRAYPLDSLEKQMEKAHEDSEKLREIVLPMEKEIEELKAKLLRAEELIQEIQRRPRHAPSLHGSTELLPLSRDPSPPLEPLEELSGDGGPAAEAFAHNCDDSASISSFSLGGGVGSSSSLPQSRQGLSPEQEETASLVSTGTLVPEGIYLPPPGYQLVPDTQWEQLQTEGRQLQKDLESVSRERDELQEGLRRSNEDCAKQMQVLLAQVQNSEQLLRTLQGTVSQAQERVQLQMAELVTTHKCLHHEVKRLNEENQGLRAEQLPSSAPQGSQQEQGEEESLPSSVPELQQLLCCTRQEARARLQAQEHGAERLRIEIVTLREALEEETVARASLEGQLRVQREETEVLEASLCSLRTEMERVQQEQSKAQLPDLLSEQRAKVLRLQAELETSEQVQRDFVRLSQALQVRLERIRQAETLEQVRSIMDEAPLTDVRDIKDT
UniProt Q15283: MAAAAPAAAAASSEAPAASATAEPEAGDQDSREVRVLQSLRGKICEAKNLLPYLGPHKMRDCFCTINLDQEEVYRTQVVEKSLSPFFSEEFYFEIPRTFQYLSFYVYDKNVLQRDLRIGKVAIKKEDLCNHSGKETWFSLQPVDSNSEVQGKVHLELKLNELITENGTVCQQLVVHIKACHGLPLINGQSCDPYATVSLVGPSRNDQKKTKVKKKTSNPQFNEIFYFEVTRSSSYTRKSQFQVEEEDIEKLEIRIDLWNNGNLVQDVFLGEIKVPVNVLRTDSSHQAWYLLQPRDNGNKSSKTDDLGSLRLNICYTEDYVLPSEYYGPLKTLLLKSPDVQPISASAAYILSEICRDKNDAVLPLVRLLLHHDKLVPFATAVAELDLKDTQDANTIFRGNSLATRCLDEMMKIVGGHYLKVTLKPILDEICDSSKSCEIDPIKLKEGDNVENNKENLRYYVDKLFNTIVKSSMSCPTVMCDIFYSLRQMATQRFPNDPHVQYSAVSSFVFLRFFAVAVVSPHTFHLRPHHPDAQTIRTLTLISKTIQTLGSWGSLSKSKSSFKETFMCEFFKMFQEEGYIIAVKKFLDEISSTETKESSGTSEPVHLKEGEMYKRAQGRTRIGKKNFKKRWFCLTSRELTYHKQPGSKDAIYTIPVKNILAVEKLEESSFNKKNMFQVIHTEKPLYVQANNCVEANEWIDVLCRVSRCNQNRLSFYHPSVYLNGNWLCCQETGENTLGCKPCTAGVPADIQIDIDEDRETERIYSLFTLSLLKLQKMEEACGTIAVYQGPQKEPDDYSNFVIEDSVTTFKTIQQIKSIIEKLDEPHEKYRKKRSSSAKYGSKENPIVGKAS
UniProt O60518: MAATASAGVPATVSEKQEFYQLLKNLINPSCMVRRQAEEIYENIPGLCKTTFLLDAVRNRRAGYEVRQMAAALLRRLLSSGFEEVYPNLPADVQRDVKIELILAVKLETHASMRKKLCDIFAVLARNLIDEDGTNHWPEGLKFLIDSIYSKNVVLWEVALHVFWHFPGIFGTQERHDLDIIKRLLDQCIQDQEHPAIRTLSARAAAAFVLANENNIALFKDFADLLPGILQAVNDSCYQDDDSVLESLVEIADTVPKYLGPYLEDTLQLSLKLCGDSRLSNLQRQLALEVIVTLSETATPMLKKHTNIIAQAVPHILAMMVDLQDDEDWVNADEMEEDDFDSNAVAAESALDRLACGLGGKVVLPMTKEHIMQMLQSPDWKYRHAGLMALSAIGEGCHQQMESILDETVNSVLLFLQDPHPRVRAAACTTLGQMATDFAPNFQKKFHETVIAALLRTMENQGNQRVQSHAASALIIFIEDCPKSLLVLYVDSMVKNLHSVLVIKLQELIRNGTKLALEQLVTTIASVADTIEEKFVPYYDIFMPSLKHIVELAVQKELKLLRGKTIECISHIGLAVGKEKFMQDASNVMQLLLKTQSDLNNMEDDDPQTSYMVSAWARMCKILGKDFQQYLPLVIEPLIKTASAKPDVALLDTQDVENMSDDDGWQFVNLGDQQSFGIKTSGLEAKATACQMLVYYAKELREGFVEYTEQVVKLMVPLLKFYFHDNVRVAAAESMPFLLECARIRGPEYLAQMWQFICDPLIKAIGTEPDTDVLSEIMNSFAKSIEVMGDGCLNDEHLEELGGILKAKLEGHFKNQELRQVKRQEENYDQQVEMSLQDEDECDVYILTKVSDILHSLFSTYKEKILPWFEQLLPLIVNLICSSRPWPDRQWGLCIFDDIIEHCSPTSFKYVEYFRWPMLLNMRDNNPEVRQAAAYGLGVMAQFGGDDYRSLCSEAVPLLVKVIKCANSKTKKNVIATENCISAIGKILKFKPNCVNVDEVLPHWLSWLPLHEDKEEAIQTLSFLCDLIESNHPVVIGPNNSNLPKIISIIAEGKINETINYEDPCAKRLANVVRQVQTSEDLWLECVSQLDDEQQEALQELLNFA
UniProt O00194: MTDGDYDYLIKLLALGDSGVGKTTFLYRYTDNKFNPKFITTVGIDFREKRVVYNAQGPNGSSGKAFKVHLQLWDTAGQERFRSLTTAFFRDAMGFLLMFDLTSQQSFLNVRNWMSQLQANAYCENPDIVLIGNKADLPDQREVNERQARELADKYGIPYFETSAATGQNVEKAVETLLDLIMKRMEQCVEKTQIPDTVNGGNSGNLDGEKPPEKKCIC
UniProt Q99708: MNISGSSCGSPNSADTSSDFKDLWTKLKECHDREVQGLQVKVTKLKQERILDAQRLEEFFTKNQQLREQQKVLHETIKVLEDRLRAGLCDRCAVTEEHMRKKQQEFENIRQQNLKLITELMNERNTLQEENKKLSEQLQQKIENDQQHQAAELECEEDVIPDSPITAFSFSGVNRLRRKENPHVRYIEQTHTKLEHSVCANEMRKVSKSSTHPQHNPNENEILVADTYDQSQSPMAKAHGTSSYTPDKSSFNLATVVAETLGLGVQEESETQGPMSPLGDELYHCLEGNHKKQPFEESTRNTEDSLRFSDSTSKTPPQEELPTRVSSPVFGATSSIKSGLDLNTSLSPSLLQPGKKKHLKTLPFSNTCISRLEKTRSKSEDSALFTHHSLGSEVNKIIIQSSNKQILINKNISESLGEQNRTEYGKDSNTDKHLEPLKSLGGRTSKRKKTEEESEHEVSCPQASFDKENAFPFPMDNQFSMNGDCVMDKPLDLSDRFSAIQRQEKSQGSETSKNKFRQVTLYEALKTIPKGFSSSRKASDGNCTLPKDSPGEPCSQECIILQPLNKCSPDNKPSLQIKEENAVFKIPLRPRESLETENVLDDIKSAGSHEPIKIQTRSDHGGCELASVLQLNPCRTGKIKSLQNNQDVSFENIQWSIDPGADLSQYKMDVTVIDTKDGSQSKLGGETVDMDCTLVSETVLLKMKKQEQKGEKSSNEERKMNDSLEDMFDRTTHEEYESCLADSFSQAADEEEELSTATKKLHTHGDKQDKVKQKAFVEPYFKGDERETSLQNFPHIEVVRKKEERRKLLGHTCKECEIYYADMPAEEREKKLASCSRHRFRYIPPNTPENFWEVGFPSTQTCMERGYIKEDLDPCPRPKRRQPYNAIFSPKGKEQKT

The other results are listed elsewhere or left out.

Compound in one assay: C1=CC=C(C=C1)C2=NC(=C(N2)C3=CC=NC=C3)C4=CC(=C(C=C4)Cl)O
In words: log2 fold change, soluble protein after heating vs DMSO (PISA); higher = thermal stabilisation; K562 cells, 10 uM, 30 min; active = over 0.2 and 3.5 SD of the protein, either way, in both replicates (recomputed). A digest of the protocol: (§1)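 Thermal stability values are relative to control samples and come from duplicates. They are expressed as log2 fold changes. For measurement, K562 cells (2×10^6 cells/mL) received 10 μM compound for 30 min, and aliquots were heated for 3 min over 48°C-58°C, pooled, and extracted at 4°C in PBS with 0.5% NP-40. Soluble protein, the supernatant after 21,000xg for 90 min, was quantified by TMTpro 16plex LC-MS/MS with equalised channel sums.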
RBM14 (UniProt Q96PK6): the log2 fold change was inactive: 0.001.
On to RBKS (UniProt Q9H477), for which the log2 fold change was inactive: -0.034.
In the case of RAB28 (UniProt P51157), the log2 fold change is inactive: 0.
For RAD50, A0A494C0Y7, the log2 fold change is inactive: -0.111.
Still for that read-out and setting: in the case of RAB3B (UniProt P20337) it was inactive: -0.161; in that of RAI1 (UniProt Q7Z5J4), inactive: -0.773.
For RAB11FIP5 (UniProt Q9BXF6), the log2 fold change is inactive: -0.189.
For the target RASSF1 (UniProt Q9NS23), the log2 fold change is inactive: -0.024.
Turning to RABEP2 (UniProt Q9H5N1), the log2 fold change was inactive: 0.061.
RASA1 (UniProt P20936): the log2 fold change is inactive: 0.05.
Same read-out and setting: under RBM23 (UniProt Q86U06) stands inactive: -0.179.
Take RASA2 (UniProt Q15283): the log2 fold change is inactive: -0.628.
Turning to RAP1B (UniProt F5GWU8), the log2 fold change was inactive: 0.34.
RAD51D (UniProt O75771): the log2 fold change is inactive: 0.287.
For RANBP6 (UniProt O60518), the log2 fold change was inactive: -0.073.
The same measure, in the same setting: under RAB27B (UniProt O00194) stands inactive: 0.083; under RAPGEF5, A0A590UJR0, inactive: -0.032.
For RALGAPB (UniProt Q86X10), the log2 fold change is inactive: -0.083.
For the target RASSF3 (UniProt Q86WH2), the log2 fold change was inactive: 0.099.
Still for that read-out and setting: under RAB3D (UniProt O95716) stands inactive: -0.145.

Compound in the next assay: C1=CC=C2C(=C1)C3=NNC4=CC=CC(=C43)C2=O
The description is as above. A digest of the protocol: as §1
For RBBP4 isoform 2 (UniProt Q09028), the log2 fold change was inactive: 0.068.
Still for that read-out and setting: in the case of RBM14 (UniProt Q96PK6) it was inactive: -0.172; in that of RBM26 isoform 3 (UniProt Q5T8P6), inactive: -0.149; in that of RBKS (UniProt Q9H477), inactive: 0.363.
On the same count and under the same terms, in the case of RAB28 (UniProt P51157) it was inactive: 0.043.
With RAD50, A0A494C0Y7, the log2 fold change is inactive: 0.048.
The same measure, in the same setting: under RALBP1 (UniProt Q15311) stands inactive: -0.007.
As for RASA1 (UniProt P20936), the log2 fold change was inactive: 0.201.
Turning to RASA2 (UniProt Q15283), the log2 fold change was inactive: -0.229.
The same measure, in the same setting: under RBBP8 isoform 2 (UniProt Q99708) stands inactive: -0.032; under RAP1B (UniProt F5GWU8), inactive: -0.163; under RBCK1 (UniProt Q9BYM8), inactive: 0.04.
In the case of RAD51D (UniProt O75771), the log2 fold change is inactive: -0.074.
RAB27B (UniProt O00194): the log2 fold change was inactive: 0.031.
In the case of RAPGEF5, A0A590UJR0, the log2 fold change is inactive: 0.211.
With RALGAPB (UniProt Q86X10), the log2 fold change is inactive: -0.003.
The same measure, in the same setting: under RASSF3 (UniProt Q86WH2) stands inactive: -0.018; under RAB3D (UniProt O95716), inactive: -0.058.
